The other results are listed elsewhere or left out.

By UniProt entry, the sequences of proteins in these tests, tags left out. Where a name states a change or a piece, a line headed by the entry shows the natural chain unless it says otherwise.
UniProt Q15436: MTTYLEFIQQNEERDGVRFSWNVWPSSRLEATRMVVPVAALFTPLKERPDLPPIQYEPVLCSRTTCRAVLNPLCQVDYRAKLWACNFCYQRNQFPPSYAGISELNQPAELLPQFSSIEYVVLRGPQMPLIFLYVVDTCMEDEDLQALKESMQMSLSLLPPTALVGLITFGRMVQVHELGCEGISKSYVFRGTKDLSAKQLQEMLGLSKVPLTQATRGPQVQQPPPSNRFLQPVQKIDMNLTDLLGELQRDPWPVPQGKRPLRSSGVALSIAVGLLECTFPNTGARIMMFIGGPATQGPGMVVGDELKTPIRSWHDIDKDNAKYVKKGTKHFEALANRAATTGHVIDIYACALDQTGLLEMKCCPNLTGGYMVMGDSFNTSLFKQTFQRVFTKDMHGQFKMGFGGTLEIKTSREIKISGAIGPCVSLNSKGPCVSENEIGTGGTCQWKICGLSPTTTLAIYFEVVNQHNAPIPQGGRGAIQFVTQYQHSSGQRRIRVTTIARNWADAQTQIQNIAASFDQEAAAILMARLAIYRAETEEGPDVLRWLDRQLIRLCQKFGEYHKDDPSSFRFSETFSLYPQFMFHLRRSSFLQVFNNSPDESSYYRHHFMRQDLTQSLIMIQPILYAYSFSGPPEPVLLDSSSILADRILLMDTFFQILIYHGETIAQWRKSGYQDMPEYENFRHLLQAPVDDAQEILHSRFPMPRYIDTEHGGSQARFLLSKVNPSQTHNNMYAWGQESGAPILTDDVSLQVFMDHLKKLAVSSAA
UniProt Q9BQE4, whole entry, looked up: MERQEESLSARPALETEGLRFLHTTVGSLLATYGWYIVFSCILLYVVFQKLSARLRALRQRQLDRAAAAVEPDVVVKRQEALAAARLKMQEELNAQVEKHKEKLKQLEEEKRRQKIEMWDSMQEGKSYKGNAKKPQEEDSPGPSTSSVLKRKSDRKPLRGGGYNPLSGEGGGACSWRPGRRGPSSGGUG
UniProt Q8WVM8, whole entry, looked up: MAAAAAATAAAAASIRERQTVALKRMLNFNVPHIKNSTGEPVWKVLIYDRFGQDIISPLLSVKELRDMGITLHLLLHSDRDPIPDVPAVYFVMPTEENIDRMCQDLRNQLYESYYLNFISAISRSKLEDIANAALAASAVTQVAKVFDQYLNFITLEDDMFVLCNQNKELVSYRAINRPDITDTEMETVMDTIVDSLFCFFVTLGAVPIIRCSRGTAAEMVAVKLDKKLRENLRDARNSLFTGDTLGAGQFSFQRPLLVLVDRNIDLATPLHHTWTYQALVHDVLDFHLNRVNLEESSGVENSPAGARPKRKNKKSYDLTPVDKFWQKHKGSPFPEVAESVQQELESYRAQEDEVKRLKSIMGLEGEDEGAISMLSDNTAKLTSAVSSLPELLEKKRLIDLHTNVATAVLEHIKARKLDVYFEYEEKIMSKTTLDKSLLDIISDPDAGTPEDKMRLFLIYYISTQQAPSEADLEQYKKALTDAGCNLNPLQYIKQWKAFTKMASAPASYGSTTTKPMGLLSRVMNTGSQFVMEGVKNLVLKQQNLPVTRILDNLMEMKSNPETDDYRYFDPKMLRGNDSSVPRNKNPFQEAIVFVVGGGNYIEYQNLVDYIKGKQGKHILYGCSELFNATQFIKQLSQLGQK
UniProt P61619, whole entry, looked up: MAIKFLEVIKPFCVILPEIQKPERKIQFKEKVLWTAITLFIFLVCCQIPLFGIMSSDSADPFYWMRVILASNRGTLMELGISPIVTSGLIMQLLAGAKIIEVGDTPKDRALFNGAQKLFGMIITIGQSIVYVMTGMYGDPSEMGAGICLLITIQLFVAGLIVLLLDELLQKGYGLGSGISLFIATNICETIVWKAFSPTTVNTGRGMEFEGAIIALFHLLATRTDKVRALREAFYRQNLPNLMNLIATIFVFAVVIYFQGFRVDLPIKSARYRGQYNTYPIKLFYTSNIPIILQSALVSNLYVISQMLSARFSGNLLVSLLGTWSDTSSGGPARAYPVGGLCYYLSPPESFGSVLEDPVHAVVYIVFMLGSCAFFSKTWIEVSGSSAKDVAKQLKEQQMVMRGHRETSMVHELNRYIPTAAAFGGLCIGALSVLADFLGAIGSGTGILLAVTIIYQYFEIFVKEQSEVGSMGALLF
UniProt Q0VDG4: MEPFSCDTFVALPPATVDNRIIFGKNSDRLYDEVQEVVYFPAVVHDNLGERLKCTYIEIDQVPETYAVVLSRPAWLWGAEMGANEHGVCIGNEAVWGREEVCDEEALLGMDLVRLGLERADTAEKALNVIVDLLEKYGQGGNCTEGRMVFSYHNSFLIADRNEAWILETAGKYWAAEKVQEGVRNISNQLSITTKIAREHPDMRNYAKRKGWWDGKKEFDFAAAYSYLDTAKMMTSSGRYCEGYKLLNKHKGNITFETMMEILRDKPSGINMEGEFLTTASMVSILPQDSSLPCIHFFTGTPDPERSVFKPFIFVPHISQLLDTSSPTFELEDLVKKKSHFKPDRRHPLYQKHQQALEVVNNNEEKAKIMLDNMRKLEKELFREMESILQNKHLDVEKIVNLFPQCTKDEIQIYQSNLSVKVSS
UniProt Q9UGP8: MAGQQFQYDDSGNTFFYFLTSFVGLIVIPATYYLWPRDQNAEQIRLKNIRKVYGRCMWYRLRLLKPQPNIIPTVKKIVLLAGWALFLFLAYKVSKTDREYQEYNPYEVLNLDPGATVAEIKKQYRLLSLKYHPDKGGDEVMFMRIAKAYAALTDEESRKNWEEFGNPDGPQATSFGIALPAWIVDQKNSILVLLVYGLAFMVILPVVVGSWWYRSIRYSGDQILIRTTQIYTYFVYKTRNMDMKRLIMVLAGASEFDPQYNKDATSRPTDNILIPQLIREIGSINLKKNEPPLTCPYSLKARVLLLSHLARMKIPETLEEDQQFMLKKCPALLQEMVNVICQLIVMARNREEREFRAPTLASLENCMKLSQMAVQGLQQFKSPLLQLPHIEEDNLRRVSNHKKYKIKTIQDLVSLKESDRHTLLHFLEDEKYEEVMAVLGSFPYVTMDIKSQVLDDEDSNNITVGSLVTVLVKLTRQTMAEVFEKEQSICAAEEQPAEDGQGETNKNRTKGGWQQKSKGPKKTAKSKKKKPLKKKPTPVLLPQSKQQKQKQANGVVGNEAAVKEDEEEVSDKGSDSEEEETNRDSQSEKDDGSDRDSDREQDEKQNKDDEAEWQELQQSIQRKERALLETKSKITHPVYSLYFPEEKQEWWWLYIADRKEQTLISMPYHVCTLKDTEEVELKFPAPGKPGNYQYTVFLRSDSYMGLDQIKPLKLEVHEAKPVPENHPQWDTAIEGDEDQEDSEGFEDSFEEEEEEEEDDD
UniProt Q9Y6B6: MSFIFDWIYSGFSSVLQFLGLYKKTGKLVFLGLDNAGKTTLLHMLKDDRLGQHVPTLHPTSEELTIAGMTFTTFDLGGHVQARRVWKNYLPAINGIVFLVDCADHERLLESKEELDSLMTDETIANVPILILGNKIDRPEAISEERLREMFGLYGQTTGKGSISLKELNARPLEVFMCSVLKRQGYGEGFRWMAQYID
UniProt O14828: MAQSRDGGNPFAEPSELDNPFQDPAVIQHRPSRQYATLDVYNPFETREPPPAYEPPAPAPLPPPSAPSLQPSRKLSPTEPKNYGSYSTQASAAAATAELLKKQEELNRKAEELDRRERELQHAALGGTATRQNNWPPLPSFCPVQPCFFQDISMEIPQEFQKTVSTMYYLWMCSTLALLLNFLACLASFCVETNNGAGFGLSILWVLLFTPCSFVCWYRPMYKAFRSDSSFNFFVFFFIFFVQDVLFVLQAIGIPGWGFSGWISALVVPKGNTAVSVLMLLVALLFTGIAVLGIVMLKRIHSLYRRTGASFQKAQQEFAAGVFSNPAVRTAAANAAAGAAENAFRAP
UniProt O60613, whole entry, looked up: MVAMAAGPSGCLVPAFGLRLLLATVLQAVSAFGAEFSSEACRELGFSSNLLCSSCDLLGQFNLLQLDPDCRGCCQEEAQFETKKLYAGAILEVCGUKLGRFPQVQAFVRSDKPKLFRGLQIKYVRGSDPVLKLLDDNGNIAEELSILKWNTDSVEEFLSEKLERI
UniProt Q6UVJ0: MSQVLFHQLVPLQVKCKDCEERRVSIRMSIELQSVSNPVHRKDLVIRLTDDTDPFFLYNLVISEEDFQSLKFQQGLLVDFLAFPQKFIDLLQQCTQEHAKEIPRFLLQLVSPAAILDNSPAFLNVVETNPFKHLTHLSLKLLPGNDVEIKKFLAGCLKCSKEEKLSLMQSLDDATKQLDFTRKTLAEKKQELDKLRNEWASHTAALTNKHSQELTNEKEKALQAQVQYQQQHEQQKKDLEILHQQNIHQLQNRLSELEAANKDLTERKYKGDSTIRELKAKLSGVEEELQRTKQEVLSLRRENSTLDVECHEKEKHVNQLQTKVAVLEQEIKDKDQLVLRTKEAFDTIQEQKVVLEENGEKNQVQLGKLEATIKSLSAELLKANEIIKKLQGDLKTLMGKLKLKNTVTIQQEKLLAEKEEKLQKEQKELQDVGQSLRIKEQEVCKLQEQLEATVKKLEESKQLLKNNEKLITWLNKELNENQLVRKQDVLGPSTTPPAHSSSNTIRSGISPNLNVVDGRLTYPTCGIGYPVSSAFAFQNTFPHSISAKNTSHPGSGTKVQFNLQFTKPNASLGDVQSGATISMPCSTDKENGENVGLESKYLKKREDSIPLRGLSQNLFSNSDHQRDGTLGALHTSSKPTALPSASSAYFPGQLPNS
UniProt Q8WU76: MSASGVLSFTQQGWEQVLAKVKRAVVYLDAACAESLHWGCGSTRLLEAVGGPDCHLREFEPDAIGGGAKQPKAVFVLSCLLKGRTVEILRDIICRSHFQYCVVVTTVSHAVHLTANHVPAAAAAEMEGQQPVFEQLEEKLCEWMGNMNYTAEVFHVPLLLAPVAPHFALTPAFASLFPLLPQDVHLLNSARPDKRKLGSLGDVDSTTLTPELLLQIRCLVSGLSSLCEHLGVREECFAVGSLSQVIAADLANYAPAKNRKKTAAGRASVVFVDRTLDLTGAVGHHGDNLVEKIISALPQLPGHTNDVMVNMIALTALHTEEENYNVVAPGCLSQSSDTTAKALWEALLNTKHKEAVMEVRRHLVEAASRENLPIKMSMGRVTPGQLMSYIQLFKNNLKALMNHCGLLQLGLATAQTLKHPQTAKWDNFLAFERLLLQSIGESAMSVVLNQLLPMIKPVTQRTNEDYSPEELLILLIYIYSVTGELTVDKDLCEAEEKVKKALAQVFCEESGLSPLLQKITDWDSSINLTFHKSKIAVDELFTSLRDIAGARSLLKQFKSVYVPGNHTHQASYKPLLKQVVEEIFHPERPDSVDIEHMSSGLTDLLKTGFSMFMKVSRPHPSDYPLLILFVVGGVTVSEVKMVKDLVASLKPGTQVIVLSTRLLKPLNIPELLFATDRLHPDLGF
UniProt Q96NL6: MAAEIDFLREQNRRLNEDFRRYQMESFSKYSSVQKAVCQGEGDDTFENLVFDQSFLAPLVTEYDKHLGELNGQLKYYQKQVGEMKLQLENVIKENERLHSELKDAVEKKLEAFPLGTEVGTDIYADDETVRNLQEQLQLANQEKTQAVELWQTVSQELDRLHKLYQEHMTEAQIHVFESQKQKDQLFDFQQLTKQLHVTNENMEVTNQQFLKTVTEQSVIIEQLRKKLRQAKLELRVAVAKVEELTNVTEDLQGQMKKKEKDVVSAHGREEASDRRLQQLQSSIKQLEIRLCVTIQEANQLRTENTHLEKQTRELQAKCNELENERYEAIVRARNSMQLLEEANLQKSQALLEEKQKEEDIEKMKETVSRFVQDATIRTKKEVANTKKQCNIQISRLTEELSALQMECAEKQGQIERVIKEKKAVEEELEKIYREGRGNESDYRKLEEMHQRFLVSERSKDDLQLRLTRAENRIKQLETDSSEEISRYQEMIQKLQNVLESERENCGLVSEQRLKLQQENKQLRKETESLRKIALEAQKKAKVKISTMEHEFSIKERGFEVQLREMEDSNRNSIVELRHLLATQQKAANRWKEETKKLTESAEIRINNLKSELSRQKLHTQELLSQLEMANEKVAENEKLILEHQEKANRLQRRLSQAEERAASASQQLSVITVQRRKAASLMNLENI
UniProt Q8WTV0: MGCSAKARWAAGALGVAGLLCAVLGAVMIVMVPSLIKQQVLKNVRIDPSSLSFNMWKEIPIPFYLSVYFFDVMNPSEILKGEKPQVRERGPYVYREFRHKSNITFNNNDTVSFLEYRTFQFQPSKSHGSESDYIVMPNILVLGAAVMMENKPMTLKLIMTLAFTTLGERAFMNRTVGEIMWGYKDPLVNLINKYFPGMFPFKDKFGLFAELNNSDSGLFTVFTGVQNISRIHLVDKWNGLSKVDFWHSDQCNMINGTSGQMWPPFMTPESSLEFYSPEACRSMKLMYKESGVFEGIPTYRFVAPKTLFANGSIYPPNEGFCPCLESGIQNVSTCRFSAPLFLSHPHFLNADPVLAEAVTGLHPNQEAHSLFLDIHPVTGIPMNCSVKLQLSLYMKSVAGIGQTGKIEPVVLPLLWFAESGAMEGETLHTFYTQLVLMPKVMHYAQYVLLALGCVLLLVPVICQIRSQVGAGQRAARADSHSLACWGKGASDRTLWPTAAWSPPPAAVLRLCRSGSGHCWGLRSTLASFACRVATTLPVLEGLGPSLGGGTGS

Compound in one test: CC1=C(C2=C(C=C1)C(=O)C3=CC=CC=C3N2CCCN)C
Nature of the test: log2 fold change, soluble protein after heating vs DMSO (PISA); higher = thermal stabilisation; K562 lysate, 10 uM; active = over 0.2 and 3.5 SD of the protein, either way, in both replicates (recomputed). The essentials:
(§1)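 A 30 min treatment with 10 μM compound was applied to crude K562 extract at 1 mg/mL protein in PBS pH 7.4 with 1 mM MgCl2. Heating for 3 min spanned 48°C-58°C, after which aliquots were pooled, adjusted to 0.5% NP-40 at 4°C and spun at 21,000xg for 90 min. TMTpro 16plex LC-MS/MS of the supernatant, with channel sums equalised, gave values recorded as log-two fold change in thermal stability against solvent controls, from duplicates.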
Take SCRIB (UniProt Q14160): the log2 fold change is inactive: 0.009.
The same measure, in the same setting: the value for SEC23A (UniProt Q15436) was inactive: 0.011.
Same read-out and setting: the value for SEPTIN9 (UniProt Q9UHD8) was inactive: -0.008; that for SEMA4B (UniProt Q9NPR2) was inactive: -0.092.
The same measure, in the same setting: the value for SDF4 (UniProt Q9BRK5) was inactive: 0.002; that for SELENOS (UniProt Q9BQE4) was inactive: -0.042; that for SCFD1 (UniProt Q8WVM8) was inactive: 0.023.
On to SEC24D isoform 2 (UniProt O94855), for which the log2 fold change was inactive: -0.011.
On to SELENBP1 isoform 4 (UniProt Q13228), for which the log2 fold change was inactive: -0.007.
For SEC61A1 (UniProt P61619), the log2 fold change was inactive: -0.041.
Still for that read-out and setting: the value for SEC24C (UniProt P53992) was inactive: 0.009; that for SAP30BP (UniProt Q9UHR5) was inactive: -0.005.
Turning to SCRN3 (UniProt Q0VDG4), the log2 fold change is inactive: -0.006.
In the case of SDSL (UniProt Q96GA7), the log2 fold change was inactive: -0.033.
The same measure, in the same setting: the value for SEC63 (UniProt Q9UGP8) was inactive: -0.014.
Still for that read-out and setting: the value for SARG (UniProt Q9BW04) was inactive: -0.033; that for SAAL1 (UniProt Q96ER3) was inactive: 0.008; that for SAR1B (UniProt Q9Y6B6) was inactive: -0.018.
Consider SAMSN1 (UniProt Q9NSI8), for which the log2 fold change was inactive: 0.016.
As for SDCCAG8 (UniProt Q86SQ7), the log2 fold change is inactive: -0.026.
The same measure, in the same setting: the value for SCYL1 (UniProt Q96KG9) was inactive: -0.004.
On the same count and under the same terms, the value for SDAD1 (UniProt Q9NVU7) was inactive: -0.022; that for SEPTIN2 isoform 2 (UniProt Q15019) was inactive: 0.003.
On the same count and under the same terms, the value for SCAMP3 isoform 2 (UniProt O14828) was inactive: -0.173.
For SELENOF (UniProt O60613), the log2 fold change was inactive: -0.034.
Turning to SASS6 (UniProt Q6UVJ0), the log2 fold change was inactive: 0.007.
Consider SCFD2 (UniProt Q8WU76), for which the log2 fold change is inactive: -0.003.
Same read-out and setting: the value for SEPTIN11 isoform 2 (UniProt Q9NVA2) was inactive: 0.013; that for SCLT1 (UniProt Q96NL6) was inactive: -0.02.
Consider SCARB1 isoform 2 (UniProt Q8WTV0), for which the log2 fold change is inactive: 0.014.
Still for that read-out and setting: the value for SENP5 (UniProt Q96HI0) was inactive: 0.033.
On the same count and under the same terms, the value for SDHB (UniProt P21912) was inactive: 0; that for SCML2 (UniProt Q9UQR0) was inactive: -0.012.

Compound in the next test: CC1=C(C=C(C=C1)NC(=O)C2=CC(=CC=C2)C(C)(C)C#N)NC3=CC4=C(C=C3)N=CN(C4=O)C
The test is described as above. The essentials: as §1
In the case of SCRIB (UniProt Q14160), the log2 fold change was inactive: 0.013.
SEC23A (UniProt Q15436): the log2 fold change was inactive: 0.
For SEPTIN9 (UniProt Q9UHD8), the log2 fold change is inactive: 0.001.
As to SEMA4B (UniProt Q9NPR2), the log2 fold change was inactive: -0.042.
In the case of SDF4 (UniProt Q9BRK5), the log2 fold change was inactive: -0.016.
On to SELENOS (UniProt Q9BQE4), for which the log2 fold change was inactive: -0.012.
The same measure, in the same setting: the value for SCFD1 (UniProt Q8WVM8) was inactive: -0.023.
Same read-out and setting: the value for SEC24D isoform 2 (UniProt O94855) was inactive: 0.019; that for SELENBP1 isoform 4 (UniProt Q13228) was inactive: -0.002.
Regarding SEC61A1 (UniProt P61619), the log2 fold change is inactive: 0.
Same read-out and setting: the value for SEC24C (UniProt P53992) was inactive: -0.005.
Still for that read-out and setting: the value for SAP30BP (UniProt Q9UHR5) was inactive: 0.035; that for SCRN3 (UniProt Q0VDG4) was inactive: 0.006; that for SDSL (UniProt Q96GA7) was inactive: 0.128.
Consider SEC63 (UniProt Q9UGP8), for which the log2 fold change is inactive: 0.016.
The same measure, in the same setting: the value for SARG (UniProt Q9BW04) was inactive: 0.005; that for SAAL1 (UniProt Q96ER3) was inactive: -0.046.
The same measure, in the same setting: the value for SAR1B (UniProt Q9Y6B6) was inactive: 0.026.
As for SAMSN1 (UniProt Q9NSI8), the log2 fold change is inactive: 0.013.
The same measure, in the same setting: the value for SDCCAG8 (UniProt Q86SQ7) was inactive: 0.063; that for SCYL1 (UniProt Q96KG9) was inactive: 0.007.
On to SDAD1 (UniProt Q9NVU7), for which the log2 fold change is inactive: 0.003.
Still for that read-out and setting: the value for SEPTIN2 isoform 2 (UniProt Q15019) was inactive: 0.014; that for SCAMP3 isoform 2 (UniProt O14828) was inactive: -0.074.
For the target SELENOF (UniProt O60613), the log2 fold change is inactive: 0.007.
On the same count and under the same terms, the value for SASS6 (UniProt Q6UVJ0) was inactive: 0.015; that for SCFD2 (UniProt Q8WU76) was inactive: 0.031.
The same measure, in the same setting: the value for SEPTIN11 isoform 2 (UniProt Q9NVA2) was inactive: 0.018; that for SCLT1 (UniProt Q96NL6) was inactive: 0.004.
For SCARB1 isoform 2 (UniProt Q8WTV0), the log2 fold change is inactive: 0.05.
As for SENP5 (UniProt Q96HI0), the log2 fold change is inactive: 0.026.
Turning to SDHB (UniProt P21912), the log2 fold change is inactive: 0.008.
As to SCML2 (UniProt Q9UQR0), the log2 fold change was inactive: -0.015.

Compound in the next test: CC1=C(C=C(C=C1)NC(=O)C2=CC(=CC=C2)N(C)C)NC(=O)C3=CC=C(C=C3)O
Described as above. The essentials: as §1
Regarding SCRIB (UniProt Q14160), the log2 fold change is inactive: 0.034.
Consider SEC23A (UniProt Q15436), for which the log2 fold change was inactive: -0.003.
The same measure, in the same setting: the value for SEPTIN9 (UniProt Q9UHD8) was inactive: -0.017; that for SEMA4B (UniProt Q9NPR2) was inactive: 0.023.
Regarding SDF4 (UniProt Q9BRK5), the log2 fold change was inactive: -0.008.
As for SELENOS (UniProt Q9BQE4), the log2 fold change was inactive: 0.031.
Take SCFD1 (UniProt Q8WVM8): the log2 fold change is inactive: 0.011.
In the case of SEC24D isoform 2 (UniProt O94855), the log2 fold change was inactive: -0.035.
On the same count and under the same terms, the value for SELENBP1 isoform 4 (UniProt Q13228) was inactive: -0.019; that for SEC61A1 (UniProt P61619) was inactive: 0.024; that for SEC24C (UniProt P53992) was inactive: -0.004.
In the case of SAP30BP (UniProt Q9UHR5), the log2 fold change was inactive: 0.034.
Same read-out and setting: the value for SCRN3 (UniProt Q0VDG4) was inactive: -0.004; that for SDSL (UniProt Q96GA7) was inactive: -0.041; that for SEC63 (UniProt Q9UGP8) was inactive: -0.011.
Same read-out and setting: the value for SARG (UniProt Q9BW04) was inactive: -0.029; that for SAAL1 (UniProt Q96ER3) was inactive: 0.002.
Consider SAR1B (UniProt Q9Y6B6), for which the log2 fold change is inactive: -0.065.
On the same count and under the same terms, the value for SAMSN1 (UniProt Q9NSI8) was inactive: -0.026; that for SDCCAG8 (UniProt Q86SQ7) was inactive: 0.033; that for SCYL1 (UniProt Q96KG9) was inactive: -0.014.
In the case of SDAD1 (UniProt Q9NVU7), the log2 fold change is inactive: 0.022.
The same measure, in the same setting: the value for SEPTIN2 isoform 2 (UniProt Q15019) was inactive: -0.013.
Same read-out and setting: the value for SCAMP3 isoform 2 (UniProt O14828) was inactive: -0.034; that for SELENOF (UniProt O60613) was inactive: -0.026.
As for SASS6 (UniProt Q6UVJ0), the log2 fold change was inactive: 0.001.
Still for that read-out and setting: the value for SCFD2 (UniProt Q8WU76) was inactive: 0.01; that for SEPTIN11 isoform 2 (UniProt Q9NVA2) was inactive: 0.004.
With SCLT1 (UniProt Q96NL6), the log2 fold change is inactive: 0.029.
On the same count and under the same terms, the value for SCARB1 isoform 2 (UniProt Q8WTV0) was inactive: 0.012.
Turning to SENP5 (UniProt Q96HI0), the log2 fold change was inactive: 0.015.
The same measure, in the same setting: the value for SDHB (UniProt P21912) was inactive: -0.017; that for SCML2 (UniProt Q9UQR0) was inactive: -0.006.

The values above are taken from the supplement of paper PMC10849652.
